Measurements as given in article PMC8184920.

Protein sequences, listed by entry. Tags and fused reporters are not part of them.
UniProt Q9CQ22: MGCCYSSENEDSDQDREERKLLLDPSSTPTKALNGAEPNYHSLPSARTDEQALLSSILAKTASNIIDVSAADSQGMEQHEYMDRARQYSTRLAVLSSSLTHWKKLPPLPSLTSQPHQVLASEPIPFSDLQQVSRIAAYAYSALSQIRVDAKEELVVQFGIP
UniProt P97434: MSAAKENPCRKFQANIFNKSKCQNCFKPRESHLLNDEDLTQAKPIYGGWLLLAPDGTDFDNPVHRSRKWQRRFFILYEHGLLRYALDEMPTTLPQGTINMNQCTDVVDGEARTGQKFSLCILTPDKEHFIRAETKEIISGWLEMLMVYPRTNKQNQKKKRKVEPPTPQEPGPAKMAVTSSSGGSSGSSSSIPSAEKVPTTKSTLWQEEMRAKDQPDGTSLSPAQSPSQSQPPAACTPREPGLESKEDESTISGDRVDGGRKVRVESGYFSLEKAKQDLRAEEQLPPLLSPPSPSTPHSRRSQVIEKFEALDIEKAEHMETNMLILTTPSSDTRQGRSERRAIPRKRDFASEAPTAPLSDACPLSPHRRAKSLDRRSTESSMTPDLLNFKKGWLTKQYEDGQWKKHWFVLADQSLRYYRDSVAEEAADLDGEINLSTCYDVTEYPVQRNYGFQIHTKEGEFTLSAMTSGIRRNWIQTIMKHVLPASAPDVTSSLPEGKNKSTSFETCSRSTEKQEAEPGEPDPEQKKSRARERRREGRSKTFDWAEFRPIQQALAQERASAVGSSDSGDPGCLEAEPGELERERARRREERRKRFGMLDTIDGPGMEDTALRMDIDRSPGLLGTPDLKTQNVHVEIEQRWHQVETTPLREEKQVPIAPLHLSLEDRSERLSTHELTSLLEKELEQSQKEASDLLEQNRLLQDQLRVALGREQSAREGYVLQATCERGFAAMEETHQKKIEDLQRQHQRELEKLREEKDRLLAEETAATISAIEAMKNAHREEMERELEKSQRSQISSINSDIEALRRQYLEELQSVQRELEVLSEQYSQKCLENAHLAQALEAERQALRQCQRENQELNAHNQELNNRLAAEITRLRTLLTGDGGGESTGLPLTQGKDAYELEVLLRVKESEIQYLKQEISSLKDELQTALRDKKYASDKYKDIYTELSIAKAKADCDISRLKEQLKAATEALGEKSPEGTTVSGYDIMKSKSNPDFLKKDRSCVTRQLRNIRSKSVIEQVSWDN

Target: Lamtor1 (endogenous, mouse BMDCs) (mouse (endogenous in BMDCs)) (UniProt Q9CQ22)
Assay: affinity purification with mass spectrometry; immunoprecipitation with anti-Lamtor1 antibody from lysates of WT and Lamtor1-/- BMDCs (50 mM Tris-HCl pH 7.4, 150 mM NaCl, 1 mM EDTA, 5% glycerol, 2% n-octyl-b-D-glucopyranoside, 1% NP-40), LC-MS/MS

- binding: binds
Substance: MPRIP (endogenous, mouse BMDCs) (from UniProt P97434 1-1024)

Results are given in words; binding and its absence hold for the method and conditions named. In cells and extracts the contact can be indirect. These calls come from enrichment with a bait or labelling near it, and not all partners need be listed.
